Test results taken from the supplement of paper PMC10849652.
The other results are listed elsewhere or left out. Residues, ends and D or L forms follow the SMILES beside them. *: point of attachment. Cbz = O=C(OCc1ccccc1)*

Sequences of proteins named here, by UniProt entry; tags and fusion partners are left off. A change or cut given only in a name is not applied to a line headed by its entry.
UniProt Q5JSL3: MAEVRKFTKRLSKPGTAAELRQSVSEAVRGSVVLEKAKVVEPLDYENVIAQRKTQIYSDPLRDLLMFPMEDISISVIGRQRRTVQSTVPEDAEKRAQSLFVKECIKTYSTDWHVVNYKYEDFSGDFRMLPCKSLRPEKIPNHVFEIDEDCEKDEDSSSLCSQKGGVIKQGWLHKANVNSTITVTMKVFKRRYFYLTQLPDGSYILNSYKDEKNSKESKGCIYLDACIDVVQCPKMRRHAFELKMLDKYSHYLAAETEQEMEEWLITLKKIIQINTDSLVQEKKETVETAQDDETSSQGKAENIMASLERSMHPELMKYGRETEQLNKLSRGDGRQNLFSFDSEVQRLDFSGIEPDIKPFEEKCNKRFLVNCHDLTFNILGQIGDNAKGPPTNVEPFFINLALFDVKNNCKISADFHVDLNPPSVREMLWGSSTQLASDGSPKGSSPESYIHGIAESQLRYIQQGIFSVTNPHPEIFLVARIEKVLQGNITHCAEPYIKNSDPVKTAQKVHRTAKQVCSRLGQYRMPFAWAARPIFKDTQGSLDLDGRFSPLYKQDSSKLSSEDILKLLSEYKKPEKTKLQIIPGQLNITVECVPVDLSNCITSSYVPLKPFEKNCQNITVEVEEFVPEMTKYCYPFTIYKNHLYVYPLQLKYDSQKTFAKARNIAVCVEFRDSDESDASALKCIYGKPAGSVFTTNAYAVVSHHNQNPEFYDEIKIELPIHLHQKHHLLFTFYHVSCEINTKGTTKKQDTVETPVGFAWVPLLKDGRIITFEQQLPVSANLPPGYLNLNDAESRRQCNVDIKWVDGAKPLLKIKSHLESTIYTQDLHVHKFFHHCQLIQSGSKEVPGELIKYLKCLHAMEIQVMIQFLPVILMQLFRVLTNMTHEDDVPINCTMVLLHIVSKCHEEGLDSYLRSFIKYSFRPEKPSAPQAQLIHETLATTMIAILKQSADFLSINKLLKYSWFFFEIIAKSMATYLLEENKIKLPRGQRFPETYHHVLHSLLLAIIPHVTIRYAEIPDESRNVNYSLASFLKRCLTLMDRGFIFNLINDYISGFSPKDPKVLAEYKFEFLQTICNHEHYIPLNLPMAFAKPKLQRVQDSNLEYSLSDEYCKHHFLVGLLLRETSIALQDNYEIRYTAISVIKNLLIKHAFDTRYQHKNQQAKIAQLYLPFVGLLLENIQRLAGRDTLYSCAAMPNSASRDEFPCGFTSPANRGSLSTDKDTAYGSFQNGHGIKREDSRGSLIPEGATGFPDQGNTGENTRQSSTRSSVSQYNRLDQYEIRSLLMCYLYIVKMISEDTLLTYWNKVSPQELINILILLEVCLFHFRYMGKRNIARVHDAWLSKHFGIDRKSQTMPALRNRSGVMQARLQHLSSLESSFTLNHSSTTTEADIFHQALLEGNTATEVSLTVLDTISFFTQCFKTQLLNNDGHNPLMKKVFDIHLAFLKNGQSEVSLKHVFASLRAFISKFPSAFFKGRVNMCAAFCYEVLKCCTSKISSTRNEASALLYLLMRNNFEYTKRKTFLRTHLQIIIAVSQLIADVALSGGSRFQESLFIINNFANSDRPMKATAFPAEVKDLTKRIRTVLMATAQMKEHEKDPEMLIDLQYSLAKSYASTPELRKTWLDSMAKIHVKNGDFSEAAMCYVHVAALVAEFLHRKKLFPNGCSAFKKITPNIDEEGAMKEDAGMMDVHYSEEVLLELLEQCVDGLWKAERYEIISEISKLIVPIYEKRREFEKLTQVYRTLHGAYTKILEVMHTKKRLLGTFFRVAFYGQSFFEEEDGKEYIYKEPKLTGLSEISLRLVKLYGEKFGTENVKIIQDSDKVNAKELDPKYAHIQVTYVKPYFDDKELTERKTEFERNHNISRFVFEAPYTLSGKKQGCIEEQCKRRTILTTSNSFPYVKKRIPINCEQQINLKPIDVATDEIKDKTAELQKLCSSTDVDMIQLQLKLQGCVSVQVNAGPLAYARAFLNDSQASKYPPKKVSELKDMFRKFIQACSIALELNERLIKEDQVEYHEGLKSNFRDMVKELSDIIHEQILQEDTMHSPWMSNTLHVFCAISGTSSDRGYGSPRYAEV
UniProt Q96DA6: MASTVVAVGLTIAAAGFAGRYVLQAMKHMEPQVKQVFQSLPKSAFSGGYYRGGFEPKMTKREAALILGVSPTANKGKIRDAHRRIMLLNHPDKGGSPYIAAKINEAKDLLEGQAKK
UniProt O43598: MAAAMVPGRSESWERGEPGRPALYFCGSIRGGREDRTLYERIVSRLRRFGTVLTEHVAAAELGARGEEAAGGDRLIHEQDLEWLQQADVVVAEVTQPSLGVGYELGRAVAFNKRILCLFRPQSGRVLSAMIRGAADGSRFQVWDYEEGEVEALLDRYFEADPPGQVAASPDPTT
UniProt P23919: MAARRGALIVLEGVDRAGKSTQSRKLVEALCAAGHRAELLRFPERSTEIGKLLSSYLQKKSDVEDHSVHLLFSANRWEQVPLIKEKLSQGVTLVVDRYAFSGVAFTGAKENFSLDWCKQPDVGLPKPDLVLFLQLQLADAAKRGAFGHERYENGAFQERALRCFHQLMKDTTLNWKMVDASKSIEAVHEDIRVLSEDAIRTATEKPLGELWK
UniProt Q5F1R6: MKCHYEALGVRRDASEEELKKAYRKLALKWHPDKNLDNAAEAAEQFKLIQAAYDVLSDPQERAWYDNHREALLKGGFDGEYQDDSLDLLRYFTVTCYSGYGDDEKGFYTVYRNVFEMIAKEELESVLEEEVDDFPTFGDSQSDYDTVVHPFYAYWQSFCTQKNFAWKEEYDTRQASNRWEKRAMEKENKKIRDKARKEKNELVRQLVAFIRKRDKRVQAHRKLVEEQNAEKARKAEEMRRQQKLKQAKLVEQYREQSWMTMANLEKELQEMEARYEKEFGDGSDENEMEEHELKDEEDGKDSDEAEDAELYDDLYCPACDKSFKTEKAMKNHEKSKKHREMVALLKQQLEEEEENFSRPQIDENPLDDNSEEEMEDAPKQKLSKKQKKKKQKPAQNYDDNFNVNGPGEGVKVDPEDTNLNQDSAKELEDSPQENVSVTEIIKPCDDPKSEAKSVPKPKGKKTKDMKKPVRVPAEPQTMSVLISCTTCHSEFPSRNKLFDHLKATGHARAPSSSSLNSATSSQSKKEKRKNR
UniProt Q13011: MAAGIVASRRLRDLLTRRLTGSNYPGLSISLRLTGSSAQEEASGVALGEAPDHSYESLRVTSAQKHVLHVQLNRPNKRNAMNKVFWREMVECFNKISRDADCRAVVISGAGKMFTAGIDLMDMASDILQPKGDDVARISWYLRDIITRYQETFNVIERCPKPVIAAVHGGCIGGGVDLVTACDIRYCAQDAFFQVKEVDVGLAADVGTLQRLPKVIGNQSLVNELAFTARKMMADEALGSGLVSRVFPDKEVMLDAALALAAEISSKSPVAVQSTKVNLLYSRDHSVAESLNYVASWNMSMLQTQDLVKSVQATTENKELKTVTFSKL
UniProt Q96F86: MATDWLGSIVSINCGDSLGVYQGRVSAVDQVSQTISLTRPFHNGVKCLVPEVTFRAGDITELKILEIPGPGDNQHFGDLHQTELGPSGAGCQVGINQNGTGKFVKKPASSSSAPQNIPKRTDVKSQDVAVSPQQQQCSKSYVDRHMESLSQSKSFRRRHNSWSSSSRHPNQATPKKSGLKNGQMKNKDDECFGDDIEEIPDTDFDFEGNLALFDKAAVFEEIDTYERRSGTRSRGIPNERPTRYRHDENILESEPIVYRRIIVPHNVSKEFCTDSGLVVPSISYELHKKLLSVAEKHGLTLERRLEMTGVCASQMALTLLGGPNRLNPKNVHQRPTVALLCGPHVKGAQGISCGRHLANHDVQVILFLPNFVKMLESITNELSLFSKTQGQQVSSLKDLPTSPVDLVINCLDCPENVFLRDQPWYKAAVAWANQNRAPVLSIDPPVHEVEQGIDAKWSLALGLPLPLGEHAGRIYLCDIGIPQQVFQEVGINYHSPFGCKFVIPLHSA
UniProt Q9BU89: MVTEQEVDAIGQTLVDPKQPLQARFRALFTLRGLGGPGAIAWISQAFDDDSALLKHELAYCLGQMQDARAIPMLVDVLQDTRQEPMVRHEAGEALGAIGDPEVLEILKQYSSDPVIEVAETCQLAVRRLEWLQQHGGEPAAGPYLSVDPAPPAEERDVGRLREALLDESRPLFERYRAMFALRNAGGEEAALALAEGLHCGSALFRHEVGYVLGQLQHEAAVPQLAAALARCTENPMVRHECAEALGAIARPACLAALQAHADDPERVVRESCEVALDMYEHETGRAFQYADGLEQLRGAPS
UniProt Q16254: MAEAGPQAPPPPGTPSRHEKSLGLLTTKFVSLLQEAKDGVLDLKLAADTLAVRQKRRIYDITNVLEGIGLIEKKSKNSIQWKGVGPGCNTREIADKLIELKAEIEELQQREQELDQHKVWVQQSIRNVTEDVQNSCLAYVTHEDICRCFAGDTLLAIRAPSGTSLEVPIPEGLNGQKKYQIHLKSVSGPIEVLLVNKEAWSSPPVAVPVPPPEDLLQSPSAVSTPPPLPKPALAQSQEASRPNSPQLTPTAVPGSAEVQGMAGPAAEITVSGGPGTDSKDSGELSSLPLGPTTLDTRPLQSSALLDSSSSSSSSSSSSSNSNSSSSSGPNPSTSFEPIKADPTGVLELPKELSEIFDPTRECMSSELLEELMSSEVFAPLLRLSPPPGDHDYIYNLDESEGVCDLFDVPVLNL
UniProt Q96KC8: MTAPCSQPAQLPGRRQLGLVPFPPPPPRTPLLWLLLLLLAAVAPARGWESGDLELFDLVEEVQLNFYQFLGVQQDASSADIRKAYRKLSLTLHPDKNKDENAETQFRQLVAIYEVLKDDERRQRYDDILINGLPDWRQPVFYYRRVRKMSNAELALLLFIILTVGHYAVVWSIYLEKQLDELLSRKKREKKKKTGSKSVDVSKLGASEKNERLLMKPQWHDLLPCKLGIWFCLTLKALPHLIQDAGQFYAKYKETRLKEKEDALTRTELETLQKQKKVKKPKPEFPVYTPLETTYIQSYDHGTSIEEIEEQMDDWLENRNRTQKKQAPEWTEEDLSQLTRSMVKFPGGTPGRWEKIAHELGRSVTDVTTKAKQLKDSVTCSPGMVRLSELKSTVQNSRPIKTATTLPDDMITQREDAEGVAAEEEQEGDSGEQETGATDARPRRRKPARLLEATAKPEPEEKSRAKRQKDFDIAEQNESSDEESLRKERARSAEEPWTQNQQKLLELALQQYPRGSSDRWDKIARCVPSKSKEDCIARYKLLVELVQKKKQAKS
UniProt Q9H410: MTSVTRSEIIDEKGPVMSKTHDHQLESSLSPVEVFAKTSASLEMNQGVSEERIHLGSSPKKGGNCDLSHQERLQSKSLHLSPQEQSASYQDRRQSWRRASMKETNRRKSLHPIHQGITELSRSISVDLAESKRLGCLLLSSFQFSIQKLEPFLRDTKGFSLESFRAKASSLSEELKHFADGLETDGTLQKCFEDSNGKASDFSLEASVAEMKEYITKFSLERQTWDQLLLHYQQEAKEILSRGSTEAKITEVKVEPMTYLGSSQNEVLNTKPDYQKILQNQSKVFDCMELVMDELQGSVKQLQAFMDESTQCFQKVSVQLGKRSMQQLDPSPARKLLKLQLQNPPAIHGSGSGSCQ
UniProt O43237, whole entry, looked up: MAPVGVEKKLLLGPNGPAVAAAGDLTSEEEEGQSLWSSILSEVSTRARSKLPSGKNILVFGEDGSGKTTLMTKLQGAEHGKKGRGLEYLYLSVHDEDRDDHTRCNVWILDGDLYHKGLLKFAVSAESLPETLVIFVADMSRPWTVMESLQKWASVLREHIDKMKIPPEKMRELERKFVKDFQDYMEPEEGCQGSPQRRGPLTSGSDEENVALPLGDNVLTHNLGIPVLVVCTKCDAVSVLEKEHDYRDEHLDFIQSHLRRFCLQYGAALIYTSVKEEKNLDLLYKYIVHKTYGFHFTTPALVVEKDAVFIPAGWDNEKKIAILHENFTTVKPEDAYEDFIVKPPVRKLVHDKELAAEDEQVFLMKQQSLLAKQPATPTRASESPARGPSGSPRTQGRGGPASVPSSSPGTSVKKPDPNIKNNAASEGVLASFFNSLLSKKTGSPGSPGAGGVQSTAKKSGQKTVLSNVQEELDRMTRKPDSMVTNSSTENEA

Experiments:
Experiment in all cases: log2 fold change, soluble protein after heating vs DMSO (PISA); higher = thermal stabilisation; K562 cells, 10 uM, 30 min; active = over 0.2 and 3.5 SD of the protein, either way, in both replicates (recomputed)
IRAK-1-4 Inhibitor I = compound: C1COCCN1CCN2C3=CC=CC=C3N=C2NC(=O)C4=CC(=CC=C4)[N+](=O)[O-] [IRAK-1-4 Inhibitor I]
Outline: (§1)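 K562 cells at 2×10^6 cells/mL were treated for 30 min with 10 μM compound, and aliquots were heated for 3 min over 48°C-58°C before pooling. Extraction used PBS with 0.5% NP-40 at 4°C, and soluble protein was the supernatant after 21,000xg for 90 min, measured by TMTpro 16plex LC-MS/MS with channel sums equalised. Thermal stability values, relative to control samples and from duplicates, are log2 fold changes.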

ibrutinib = compound: C=CC(=O)N1CCC[C@@H](n2nc(-c3ccc(Oc4ccccc4)cc3)c3c(N)ncnc32)C1 [ibrutinib]
Outline: as §1

[1] = compound: CC(=O)c1cnc2ccc(-c3cc(Cl)c(O)c(Cl)c3)nc2c1N[C@H]1CC[C@H](CN(C)C)CC1
Outline: as §1

ralimetinib = compound: CC(C)(C)Cn1c(N)nc2ccc(-c3[nH]c(C(C)(C)C)nc3-c3ccc(F)cc3)nc21 [ralimetinib]
Outline: as §1

[2] = compound: CC(C)(O)CC(=O)NCCn1ccc2ncnc(Nc3ccc(Oc4cccc(C(F)(F)F)c4)c(Cl)c3)c21
Outline: as §1

[3] = compound: CC(C)C1=C2N=C(C=C(N2N=C1)NCC3=CC=CC=C3)NCCCCCCN
Outline: as §1

[4] = compound: CC(C)C[C@@H](C=O)NC(=O)[C@H](CC(C)C)NC(=O)[C@H](CC(C)C)NC(=O)OCc1ccccc1
Outline: as §1

pinometostat = compound: CC(C)N(C[C@H]1O[C@@H](n2cnc3c(N)ncnc32)[C@H](O)[C@@H]1O)[C@H]1C[C@@H](CCc2nc3cc(C(C)(C)C)ccc3[nH]2)C1 [pinometostat]
Outline: as §1

[5] = compound: CC1=C(C(CC(=O)N1)C2=CC=C(C=C2)C(F)(F)F)C(=O)NC3=C(C=C4C(=C3)C=NN4)F
Outline: as §1

[6] = compound: CC1=C(C2=C(C=C1)C(=O)C3=CC=CC=C3N2CCCN)C
Outline: as §1

[7] = compound: CC1=C(C=C(C=C1)NC(=O)C2=CC(=CC=C2)C(C)(C)C#N)NC3=CC4=C(C=C3)N=CN(C4=O)C
Outline: as §1

[8] = compound: CC1=C(C=C(C=C1)NC(=O)C2=CC(=CC=C2)N(C)C)NC(=O)C3=CC=C(C=C3)O
Outline: as §1

[9] = compound: CC1=CC=C(C=C1)SC2=C3C=C(SC3=CN=C2)C(=O)N
Outline: as §1

[10] = compound: CC1=NC(=CC=C1)C2=C(N=C(N2)C(C)(C)C)C3=CC4=NC=CN=C4C=C3
Outline: as §1

Nexturastat A = compound: CCCCN(Cc1ccc(C(=O)NO)cc1)C(=O)Nc1ccccc1 [Nexturastat A]
Outline: as §1

vemurafenib = compound: CCCS(=O)(=O)Nc1ccc(F)c(C(=O)c2c[nH]c3ncc(-c4ccc(Cl)cc4)cc23)c1F [vemurafenib]
Outline: as §1

[11] = compound: CCCS(=O)(=O)Nc1ccc(F)c(C(=O)c2c[nH]c3ncc(Cl)cc23)c1F
Outline: as §1

[12] = compound: CCCc1cc(C)[nH]c(=O)c1CNC(=O)c1cc(-c2ccnc(N3CCN(C)CC3)c2)cc2c1cnn2C(C)C
Outline: as §1

givinostat = compound: CCN(CC)Cc1ccc2cc(COC(=O)Nc3ccc(C(=O)NO)cc3)ccc2c1 [givinostat]
Outline: as §1

barasertib = compound: CCN(CCCOc1ccc2c(Nc3cc(CC(=O)Nc4cccc(F)c4)[nH]n3)ncnc2c1)CCOP(=O)(O)O [barasertib]
Outline: as §1

Measured: log2 fold change

DOCK11 (UniProt Q5JSL3)
inactive: IRAK-1-4 Inhibitor I -0.04 | ibrutinib -0.002 | [1] 0.025 | ralimetinib -0.021 | [2] -0.038 | [3] -0.072 | [4] 0.031 | pinometostat 0.099 | [5] 0.021 | [6] 0.025 | [7] 0.009 | [8] -0.074 | [9] -0.002 | [10] 0.016 | Nexturastat A 0.065 | vemurafenib 0.013 | [11] 0.03 | [12] -0.015 | givinostat 0.043 | barasertib 0.028

DNAJC19 (UniProt Q96DA6)
inactive: IRAK-1-4 Inhibitor I 0.045 | ibrutinib 0.024 | [1] 0.038 | ralimetinib 0.029 | [2] -0.054 | [3] -0.153 | [4] -0.006 | pinometostat -0.013 | [6] 0.023 | [7] -0.02 | [8] 0.001 | [9] 0.043 | [10] 0.069 | Nexturastat A -0.121 | vemurafenib 0.003 | [11] 0.035 | [12] -0.013 | givinostat 0.005 | barasertib 0.007

EDEM2 (UniProt Q9BV94)
inactive: IRAK-1-4 Inhibitor I 0.181 | ibrutinib -0.014 | [1] -0.062 | ralimetinib -0.138 | [2] -0.009 | [3] -0.071 | [4] 0.065 | pinometostat -0.001 | [6] 0.022 | [7] -0.064 | [8] -0.001 | [9] -0.084 | [10] -0.204 | Nexturastat A 0.036 | vemurafenib -0.032 | [11] -0.149 | [12] 0.095 | givinostat 0.013 | barasertib 0.21

DPP7 (UniProt Q9UHL4)
inactive: IRAK-1-4 Inhibitor I 0.047 | ibrutinib 0.044 | [1] -0.029 | ralimetinib 0.03 | [2] 0.083 | [3] -0.018 | [4] -0.115 | pinometostat -0.003 | [5] 0.007 | [6] -0.002 | [7] -0.031 | [8] 0.015 | [9] 0.029 | [10] 0.015 | Nexturastat A -0.023 | vemurafenib -0.014 | [11] -0.025 | [12] -0.019 | givinostat 0.006 | barasertib 0.035

DYRK1A isoform 2 (UniProt Q13627)
active: [1] -0.358
inactive: IRAK-1-4 Inhibitor I -0.001 | ibrutinib -0.009 | ralimetinib -0.046 | [2] -0.042 | [3] -0.254 | [4] 0.064 | pinometostat 0.055 | [6] 0.144 | [7] -0.025 | [8] 0.061 | [9] 0.003 | [10] -0.005 | Nexturastat A -0.032 | vemurafenib -0.021 | [11] -0.024 | [12] -0.019 | givinostat 0.038 | barasertib 0.004

DNPH1 (UniProt O43598)
inactive: IRAK-1-4 Inhibitor I 0.041 | ibrutinib 0.06 | [1] -0.019 | ralimetinib -0.027 | [2] 0 | [3] 0.063 | [4] -0.003 | pinometostat -0.086 | [5] 0.02 | [6] -0.005 | [7] -0.042 | [8] -0.024 | [9] 0.015 | [10] 0.099 | Nexturastat A 0.057 | vemurafenib -0.012 | [11] 0.01 | [12] -0.017 | givinostat -0.002 | barasertib -0.005

DTYMK (UniProt P23919)
inactive: IRAK-1-4 Inhibitor I 0.076 | ibrutinib -0.003 | [1] -0.02 | ralimetinib -0.056 | [2] -0.178 | [3] -0.029 | [4] -0.013 | pinometostat 0.039 | [6] 0.084 | [7] -0.001 | [8] 0.05 | [9] 0 | [10] 0.015 | Nexturastat A -0.009 | vemurafenib -0.017 | [11] -0.069 | [12] -0.1 | givinostat -0.007 | barasertib -0.011

DNAJC21 isoform 3 (UniProt Q5F1R6)
inactive: IRAK-1-4 Inhibitor I -0.049 | ibrutinib -0.023 | [1] -0.008 | ralimetinib 0.136 | [2] 0.003 | [3] -0.054 | [4] 0.143 | pinometostat 0.112 | [5] -0.028 | [6] -0.116 | [7] 0.109 | [8] -0.004 | [9] -0.066 | [10] -0.025 | Nexturastat A 0.204 | vemurafenib 0.106 | [11] 0.05 | [12] -0.063 | givinostat 0.083 | barasertib 0.002

ECH1 (UniProt Q13011)
inactive: IRAK-1-4 Inhibitor I 0.056 | ibrutinib -0.003 | [1] -0.058 | ralimetinib 0.087 | [2] -0.112 | [3] -0.164 | [4] -0.033 | pinometostat 0.003 | [6] 0.076 | [7] 0.005 | [8] -0.027 | [9] 0.044 | [10] 0.014 | Nexturastat A -0.032 | vemurafenib 0.012 | [11] -0.003 | [12] -0.065 | givinostat 0.129 | barasertib 0.035

EDC3 (UniProt Q96F86)
inactive: IRAK-1-4 Inhibitor I -0.029 | ibrutinib -0.082 | ralimetinib 0.013 | [2] -0.117 | [3] -0.223 | [4] 0.019 | pinometostat 0.011 | [6] -0.049 | [7] -0.046 | [8] 0.085 | [9] 0.021 | [10] 0.037 | Nexturastat A 0.088 | vemurafenib 0.046 | [11] 0.008 | [12] 0.1 | givinostat 0.049 | barasertib 0.055
active: [1] -0.643

Reprinted at random: 2 entries already listed.
DNAJC21 isoform 3 (UniProt Q5F1R6)
inactive: IRAK-1-4 Inhibitor I -0.049 | ibrutinib -0.023 | [1] -0.008 | ralimetinib 0.136 | [2] 0.003 | [3] -0.054 | [4] 0.143 | pinometostat 0.112 | [5] -0.028 | [6] -0.116 | [7] 0.109 | [8] -0.004 | [9] -0.066 | [10] -0.025 | Nexturastat A 0.204 | vemurafenib 0.106 | [11] 0.05 | [12] -0.063 | givinostat 0.083 | barasertib 0.002

ECH1 (UniProt Q13011)
inactive: IRAK-1-4 Inhibitor I 0.056 | ibrutinib -0.003 | [1] -0.058 | ralimetinib 0.087 | [2] -0.112 | [3] -0.164 | [4] -0.033 | pinometostat 0.003 | [6] 0.076 | [7] 0.005 | [8] -0.027 | [9] 0.044 | [10] 0.014 | Nexturastat A -0.032 | vemurafenib 0.012 | [11] -0.003 | [12] -0.065 | givinostat 0.129 | barasertib 0.035

The list continues.

DPY19L1, A0A1B0GW05
inactive: IRAK-1-4 Inhibitor I -0.009 | ibrutinib 0.014 | [1] 0.017 | ralimetinib -0.019 | [2] -0.016 | [3] -0.094 | [4] 0.158 | pinometostat 0.032 | [5] 0.063 | [6] 0.053 | [7] 0.034 | [8] 0.045 | [9] 0.008 | [10] 0.038 | Nexturastat A 0.06 | vemurafenib -0.114 | [11] 0.023 | [12] 0.013 | givinostat 0.017 | barasertib -0.012

DOHH (UniProt Q9BU89)
inactive: IRAK-1-4 Inhibitor I 0.127 | ibrutinib 0.137 | [1] 0.103 | ralimetinib 0.004 | [2] 0.244 | [3] 0.045 | [4] -0.106 | pinometostat 0.011 | [6] 0.189 | [7] 0.083 | [8] -0.069 | [9] 0.084 | [10] -0.091 | Nexturastat A -0.144 | vemurafenib 0.001 | [11] -0.059 | [12] -0.063 | givinostat -0.068 | barasertib -0.274

E2F4 (UniProt Q16254)
inactive: IRAK-1-4 Inhibitor I -0.025 | ibrutinib -0.009 | [1] -0.073 | ralimetinib 0.011 | [2] -0.072 | [3] -0.167 | [4] 0.038 | pinometostat 0.001 | [6] -0.119 | [7] 0.031 | [8] 0.011 | [9] 0.087 | [10] 0.079 | Nexturastat A 0.034 | vemurafenib -0.001 | [11] 0.02 | [12] 0.021 | givinostat 0.05 | barasertib 0.054

DNAJC1 (UniProt Q96KC8)
inactive: IRAK-1-4 Inhibitor I 0.017 | ibrutinib 0.02 | [1] -0.026 | ralimetinib -0.081 | [2] -0.117 | [4] 0.025 | pinometostat -0.037 | [6] 0.019 | [7] 0.027 | [8] 0 | [9] 0.014 | [10] 0.049 | Nexturastat A -0.079 | vemurafenib -0.007 | [11] 0.037 | [12] -0.13 | givinostat -0.013 | barasertib 0.047
active: [3] -0.462

DSN1 (UniProt Q9H410)
inactive: IRAK-1-4 Inhibitor I -0.143 | ibrutinib -0.038 | [1] -0.041 | ralimetinib -0.131 | [2] -0.055 | [3] -0.106 | [4] 0.004 | pinometostat -0.037 | [6] -0.045 | [7] -0.02 | [8] -0.096 | [9] -0.003 | [10] 0.021 | Nexturastat A 0.051 | vemurafenib 0.133 | [11] 0.022 | [12] 0.004 | givinostat 0.053 | barasertib 0.075

DYNC1LI2 (UniProt O43237)
inactive: IRAK-1-4 Inhibitor I 0.089 | ibrutinib 0.083 | [1] 0.099 | ralimetinib 0.124 | [2] 0.03 | [3] -0.067 | [4] 0.07 | pinometostat 0.146 | [6] 0.094 | [7] 0.013 | [8] -0.093 | [9] -0.049 | [10] -0.193 | vemurafenib 0.001 | [11] -0.027 | [12] 0.076 | givinostat 0.017 | barasertib 0.05
active: Nexturastat A 0.646
